Reference: publication PMC6548983
Results are given in words; binding and its absence hold for the method and conditions named. Some entries that bind do so weakly or less than the wild type. Tags and fused reporters may be left off the sequences shown.

T1: truncated PIF4Δ53 fused to the GAL4 DNA-binding domain (Arabidopsis) (UniProt Q8W2F3)
T1 sequence: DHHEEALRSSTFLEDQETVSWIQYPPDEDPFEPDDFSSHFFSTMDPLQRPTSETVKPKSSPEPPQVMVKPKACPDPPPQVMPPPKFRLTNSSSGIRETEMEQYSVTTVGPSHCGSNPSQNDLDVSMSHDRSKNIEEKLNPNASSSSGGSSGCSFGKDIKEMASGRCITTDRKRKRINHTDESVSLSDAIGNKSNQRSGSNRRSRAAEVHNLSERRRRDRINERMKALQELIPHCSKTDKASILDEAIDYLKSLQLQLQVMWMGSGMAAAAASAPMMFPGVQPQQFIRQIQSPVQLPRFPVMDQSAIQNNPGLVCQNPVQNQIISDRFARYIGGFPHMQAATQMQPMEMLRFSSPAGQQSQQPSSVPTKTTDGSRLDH

T2: TEOSINTE BRANCHED 1/CYCLOIDEA/PCF 5 (TCP5), yeast two-hybrid fusion (Arabidopsis) (UniProt Q9FME3)
T2 sequence: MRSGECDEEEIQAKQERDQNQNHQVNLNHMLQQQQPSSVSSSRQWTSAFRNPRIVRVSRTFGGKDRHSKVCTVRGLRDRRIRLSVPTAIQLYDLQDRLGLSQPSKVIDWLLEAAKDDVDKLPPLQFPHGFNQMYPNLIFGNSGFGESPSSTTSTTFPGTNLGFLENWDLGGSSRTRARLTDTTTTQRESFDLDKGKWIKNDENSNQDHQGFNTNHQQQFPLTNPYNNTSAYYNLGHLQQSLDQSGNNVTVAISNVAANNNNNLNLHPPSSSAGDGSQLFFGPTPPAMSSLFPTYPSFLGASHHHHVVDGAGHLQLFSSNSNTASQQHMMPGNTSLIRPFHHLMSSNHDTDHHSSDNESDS


What was measured:
[1] = biological target: T1, truncated PIF4Δ53 fused to the GAL4 DNA-binding domain (Arabidopsis); experiment: two-hybrid; yeast; DBD fused to TCPs or PIF4Δ53, AD fused to PIF4 or TCPs; selection on SD-Leu-Trp-His with or without 10 mM 3-AT, dilutions of 10- and 100-fold; empty pDEST22 as negative control
[2] = biological target: T2, TEOSINTE BRANCHED 1/CYCLOIDEA/PCF 5 (TCP5), yeast two-hybrid fusion (Arabidopsis); experiment: two-hybrid; yeast two-hybrid of TCP5 with PIF4 homologs (Figure S2I); orientation not stated

Row | Binder | binding [1] | binding [2]
1 | TCP13, yeast two-hybrid fusion (protein, UniProt Q9S7W5 1-355) MNIVSWKDANDEVAGGATTRREREVKEDQEETEVRATSGKTVIKKQPTSISSSSSSWMKSKDPRIVRVSRAFGGKDRHSKVCTLRGLRDRRVRLSVPTAIQLYDLQERLGVDQPSKAVDWLLDAAKEEIDELPPLPISPENFSIFNHHQSFLNLGQRPGQDPTQLGFKINGCVQKSTTTSREENDREKGENDVVYTNNHHVGSYGTYHNLEHHHHHHQHLSLQADYHSHQLHSLVPFPSQILVCPMTTSPTTTTIQSLFPSSSSAGSGTMETLDPRQMVSHFQMPLMGNSSSSSSQNISTLYSLLHGSSSNNGGRDIDNRMSSVQFNRTNSTTTANMSRHLGSERCTSRGSDHHM | binds | –
2 | TEOSINTE BRANCHED 1/CYCLOIDEA/PCF 5 (TCP5), yeast two-hybrid fusion (protein, UniProt Q9FME3 1-360) MRSGECDEEEIQAKQERDQNQNHQVNLNHMLQQQQPSSVSSSRQWTSAFRNPRIVRVSRTFGGKDRHSKVCTVRGLRDRRIRLSVPTAIQLYDLQDRLGLSQPSKVIDWLLEAAKDDVDKLPPLQFPHGFNQMYPNLIFGNSGFGESPSSTTSTTFPGTNLGFLENWDLGGSSRTRARLTDTTTTQRESFDLDKGKWIKNDENSNQDHQGFNTNHQQQFPLTNPYNNTSAYYNLGHLQQSLDQSGNNVTVAISNVAANNNNNLNLHPPSSSAGDGSQLFFGPTPPAMSSLFPTYPSFLGASHHHHVVDGAGHLQLFSSNSNTASQQHMMPGNTSLIRPFHHLMSSNHDTDHHSSDNESDS | binds | –

Second part, the binder after the results:

Row | binding [1] | binding [2] | Binder
3 | binds | – | TCP17, yeast two-hybrid fusion (protein, UniProt Q9LEZ9 1-242) MGIKKEDQKSSLSLLTQRWNNPRIVRVSRAFGGKDRHSKVCTVRGLRDRRIRLSVMTAIQVYDLQERLGLSQPSKVIDWLLEVAKNDVDLLPPLQFPPGFHQLNPNLTGLGESFPGVFDLGRTQREALDLEKRKWVNLDHVFDHIDHHNHFSNSIQSNKLYFPTITSSSSSYHYNLGHLQQSLLDQSGNVTVAFSNNYNNNNLNPPAAETMSSLFPTRYPSFLGGGQLQLFSSTSSQPDHIE
4 | – | binds | PIF1, yeast two-hybrid fusion (protein, UniProt Q8GZM7 1-478) MHHFVPDFDTDDDYVNNHNSSLNHLPRKSITTMGEDDDLMELLWQNGQVVVQNQRLHTKKPSSSPPKLLPSMDPQQQPSSDQNLFIQEDEMTSWLHYPLRDDDFCSDLLFSAAPTATATATVSQVTAARPPVSSTNESRPPVRNFMNFSRLRGDFNNGRGGESGPLLSKAVVRESTQVSPSATPSAAASESGLTRRTDGTDSSAVAGGGAYNRKGKAVAMTAPAIEITGTSSSVVSKSEIEPEKTNVDDRKRKEREATTTDETESRSEETKQARVSTTSTKRSRAAEVHNLSERKRRDRINERMKALQELIPRCNKSDKASMLDEAIEYMKSLQLQIQMMSMGCGMMPMMYPGMQQYMPHMAMGMGMNQPIPPPSFMPFPNMLAAQRPLPTQTHMAGSGPQYPVHASDPSRVFVPNQQYDPTSGQPQYPAGYTDPYQQFRGLHPTQPPQFQNQATSYPSSSRVSSSKESEDHGNHTTG
5 | – | binds | PIF5, yeast two-hybrid fusion (protein, UniProt Q84LH8 1-444) MEQVFADWNFEDNFHMSTNKRSIRPEDELVELLWRDGQVVLQSQARREPSVQVQTHKQETLRKPNNIFLDNQETVQKPNYAALDDQETVSWIQYPPDDVIDPFESEFSSHFFSSIDHLGGPEKPRTIEETVKHEAQAMAPPKFRSSVITVGPSHCGSNQSTNIHQATTLPVSMSDRSKNVEERLDTSSGGSSGCSYGRNNKETVSGTSVTIDRKRKHVMDADQESVSQSDIGLTSTDDQTMGNKSSQRSGSTRRSRAAEVHNLSERRRRDRINERMKALQELIPHCSRTDKASILDEAIDYLKSLQMQLQVMWMGSGMAAAAAAAASPMMFPGVQSSPYINQMAMQSQMQLSQFPVMNRSAPQNHPGLVCQNPVQLQLQAQNQILSEQLARYMGGIPQMPPAGNQMQTVQQQPADMLGFGSPAGPQSQLSAPATTDSLHMGKIG
